Here are results for two substances from paper PMC12505970.

The chains behind the UniProt entries cited, without tags or fusion partners. Where a name states a change or a piece, a line headed by the entry shows the natural chain unless it says otherwise.
UniProt Q2G2G6: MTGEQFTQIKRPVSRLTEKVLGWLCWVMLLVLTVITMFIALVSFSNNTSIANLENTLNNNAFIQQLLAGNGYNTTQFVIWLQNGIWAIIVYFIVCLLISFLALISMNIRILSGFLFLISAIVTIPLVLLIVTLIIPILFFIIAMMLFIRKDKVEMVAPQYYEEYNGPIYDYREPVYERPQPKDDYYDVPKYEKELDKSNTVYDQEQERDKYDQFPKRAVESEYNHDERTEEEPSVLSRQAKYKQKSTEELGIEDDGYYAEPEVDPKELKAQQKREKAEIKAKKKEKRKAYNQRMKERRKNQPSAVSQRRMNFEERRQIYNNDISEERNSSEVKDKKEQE
UniProt A5ISX6: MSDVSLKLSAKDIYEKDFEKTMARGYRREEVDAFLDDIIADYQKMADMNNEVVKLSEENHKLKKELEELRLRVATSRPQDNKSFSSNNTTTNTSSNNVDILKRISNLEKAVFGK
UniProt A0A0H2XGG5: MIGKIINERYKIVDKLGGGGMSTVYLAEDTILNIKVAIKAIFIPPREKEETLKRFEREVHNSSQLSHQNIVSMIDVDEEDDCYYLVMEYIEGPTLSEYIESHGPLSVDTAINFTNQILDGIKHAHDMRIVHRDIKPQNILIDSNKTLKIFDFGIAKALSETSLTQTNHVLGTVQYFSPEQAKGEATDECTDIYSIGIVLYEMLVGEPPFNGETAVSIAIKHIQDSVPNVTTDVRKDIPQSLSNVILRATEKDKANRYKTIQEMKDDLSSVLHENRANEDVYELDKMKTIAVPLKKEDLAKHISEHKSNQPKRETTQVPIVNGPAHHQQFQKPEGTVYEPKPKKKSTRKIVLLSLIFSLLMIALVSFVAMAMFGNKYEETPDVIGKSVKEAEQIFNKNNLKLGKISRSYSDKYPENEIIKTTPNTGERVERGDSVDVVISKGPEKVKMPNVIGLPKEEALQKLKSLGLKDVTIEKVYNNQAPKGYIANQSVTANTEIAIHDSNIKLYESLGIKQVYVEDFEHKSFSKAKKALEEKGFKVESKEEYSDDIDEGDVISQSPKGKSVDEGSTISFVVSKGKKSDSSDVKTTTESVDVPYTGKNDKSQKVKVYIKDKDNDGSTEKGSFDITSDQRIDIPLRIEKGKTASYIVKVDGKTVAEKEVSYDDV

No constants are given. Whether binding was seen depends on the method and setting. In cells and extracts the contact can be indirect. Binding calls can cover weak binding; strength is not graded here.

The target of the assay is FLAG-AuxB (AuxB^WT) (S. aureus) (UniProt Q2G2G6). The experiment in a line: co-IP; FLAG-tagged bait from S. aureus membranes solubilised in 1% DDM (PBS pH 7.4, NaCl), α-FLAG M2 magnetic beads at 4°C, washes with decreasing DDM, elution with 3×FLAG peptide; Coomassie-stained gel, bands identified by LC-MS.

As for “GpsB (endogenous, S. aureus) (from UniProt A5ISX6 1-114)”, the binding result is reported as “binds”.

Consider “PknB (endogenous, S. aureus) (from UniProt A0A0H2XGG5)”, for which the binding entry is on record as “binds”.
